From patent US4933104A, “Anthraquinone derivative as a dichroic dye for a liquid-crystal material, liquid-crystal material and an electrooptical device” (priority 1986, dated 1990)

Test: intensity of colour of symbols N in an electrooptical device (guest-host effect)
Conditions: Table 7; dichroic working body 20 μm thick

In the case of `CCCCCCc1ccc(C(=O)Nc2ccc(O)c3c2C(=O)c2c(NC(=O)c4ccc(CCCCCC)cc4)ccc(O)c2C3=O)cc1` [No. 9, Table 6], the “Intensity N = D1 - D11, known derivatives” value (“Intensity N = D1 - D11” for short) is reported as 0.26.

In the case of `CCCCc1ccc(C(=O)Nc2ccc(O)c3c2C(=O)c2c(NC(=O)c4ccc(CCCC)cc4)ccc(O)c2C3=O)cc1` [No. 7, Table 6], the “Intensity N = D1 - D11” value is reported as 0.27.

In the case of `CCCCc1ccc(C(=O)Nc2ccc(O)c3c2C(=O)c2c(NC(=O)c4ccc(CCCC)cc4)ccc(OC(=O)c4ccc(CCCC)cc4)c2C3=O)cc1` [No. 8, Table 6, reference compound], the “Intensity N = D1 - D11” value is reported as 0.27.

With `CCCCCCc1ccc(C(=O)Nc2ccc(OC(=O)c3ccc(CCCCCC)cc3)c3c2C(=O)c2c(NC(=O)c4ccc(CCCCCC)cc4)ccc(OC(=O)c4ccc(CCCCCC)cc4)c2C3=O)cc1` [No. 5, Table 6, reference compound] the “Intensity N = D1 - D11” value was 0.19.

With `CCCCCCCCc1ccc(-c2ccc(C(=O)Nc3ccc(NCCCC)c4c3C(=O)c3ccccc3C4=O)cc2)cc1` [No. 1, Table 6, reference compound] the “Intensity N = D1 - D11” value was 0.16.

For `CCCCc1ccc(C(=O)Nc2ccc(NC(=O)c3ccc(CCCC)cc3)c3c2C(=O)c2ccccc2C3=O)cc1` [No. 3, Table 6, reference compound], the “Intensity N = D1 - D11” value was 0.23.

With `CCCCc1ccc(C(=O)Nc2ccc(OC(=O)c3ccc(CCCC)cc3)c3c2C(=O)c2c(NC(=O)c4ccc(CCCC)cc4)ccc(OC(=O)c4ccc(CCCC)cc4)c2C3=O)cc1` [No. 6, Table 6] the “Intensity N = D1 - D11” value was 0.21.

With `CCCCCC1CCC(c2ccc(C(=O)Nc3ccc(O)c4c3C(=O)c3c(NC(=O)c5ccc(C6CCC(CCCCC)CC6)cc5)ccc(OC(=O)c5ccc(C6CCC(CCCCC)CC6)cc5)c3C4=O)cc2)CC1` (stereo not shown) [No. 10, Table 6, reference compound] the “Intensity N = D1 - D11” value was 0.26.

For `CCCCCCc1ccc(C(=O)Nc2ccc(NC(=O)c3ccc(CCCCCC)cc3)c3c2C(=O)c2ccccc2C3=O)cc1` [No. 4, Table 6, reference compound], the “Intensity N = D1 - D11” value was 0.25.

With `CCCCCc1ccc(-c2ccc(C(=O)Nc3ccc(NCCCC)c4c3C(=O)c3ccccc3C4=O)cc2)cc1` [No. 2, Table 6, reference compound] the “Intensity N = D1 - D11” value was 0.18.

Some values come without a unit; they compare only within their column.
